± gives the standard deviation of the averaged measurements. The entries are a selection whose mix differs from that of the whole data set.
Compound: Nc1ncnc2c1ncn2[C@@H]1O[C@H](COP(=O)(O)OP(=O)(O)OP(=O)(O)O)[C@@H](O)[C@H]1O [adenosine triphosphate]
Experiment: NP40-soluble protein abundance relative to vehicle (solubility fold change) (ratio); higher = more soluble protein in presence of ATP
Outline: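 Crude Jurkat lysate, prepared by Dounce homogenisation, was exposed to eight concentrations from 0.1 to 10 mM for 10 min at room temperature and then 3 min at 37 °C. Solubilisation used 0.8% NP40 with benzonase for 60 min at 4 °C, followed by ultracentrifugation and TMT labelling of the supernatant for LC-MS/MS. After vsn normalisation of intensities, each value is the fold change against the detergent-processed vehicle within each replicate, across three independent experiments.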

Chains of the proteins cited; added tags and fusions are not shown. Lines headed by an entry give the natural chain unless they say otherwise; changes in a name come on top.
UniProt Q99436: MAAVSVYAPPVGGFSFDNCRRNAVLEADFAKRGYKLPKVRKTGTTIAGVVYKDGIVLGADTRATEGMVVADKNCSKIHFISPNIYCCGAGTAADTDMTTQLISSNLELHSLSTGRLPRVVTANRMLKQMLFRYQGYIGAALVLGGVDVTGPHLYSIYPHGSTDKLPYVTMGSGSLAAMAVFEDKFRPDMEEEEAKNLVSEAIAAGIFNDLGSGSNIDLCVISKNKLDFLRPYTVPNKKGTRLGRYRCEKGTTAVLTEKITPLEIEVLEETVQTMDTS
UniProt Q9BWG4: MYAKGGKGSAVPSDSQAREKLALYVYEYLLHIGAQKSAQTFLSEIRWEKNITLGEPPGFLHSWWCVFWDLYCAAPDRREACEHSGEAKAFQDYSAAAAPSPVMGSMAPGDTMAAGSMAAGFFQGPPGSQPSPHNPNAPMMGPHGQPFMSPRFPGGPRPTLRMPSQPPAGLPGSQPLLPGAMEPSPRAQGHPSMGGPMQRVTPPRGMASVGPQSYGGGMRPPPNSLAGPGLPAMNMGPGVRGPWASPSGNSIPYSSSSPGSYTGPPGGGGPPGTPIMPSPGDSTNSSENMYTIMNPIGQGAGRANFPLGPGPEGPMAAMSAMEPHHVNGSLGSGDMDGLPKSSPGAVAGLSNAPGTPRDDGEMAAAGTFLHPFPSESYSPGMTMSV
UniProt Q9BRT9, whole entry: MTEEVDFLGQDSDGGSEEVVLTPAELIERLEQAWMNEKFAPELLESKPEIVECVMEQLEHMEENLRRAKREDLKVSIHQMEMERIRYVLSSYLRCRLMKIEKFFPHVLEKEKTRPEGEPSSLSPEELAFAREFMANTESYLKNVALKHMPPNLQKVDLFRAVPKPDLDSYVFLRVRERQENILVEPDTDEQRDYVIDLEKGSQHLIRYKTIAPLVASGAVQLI
UniProt Q99623, whole entry: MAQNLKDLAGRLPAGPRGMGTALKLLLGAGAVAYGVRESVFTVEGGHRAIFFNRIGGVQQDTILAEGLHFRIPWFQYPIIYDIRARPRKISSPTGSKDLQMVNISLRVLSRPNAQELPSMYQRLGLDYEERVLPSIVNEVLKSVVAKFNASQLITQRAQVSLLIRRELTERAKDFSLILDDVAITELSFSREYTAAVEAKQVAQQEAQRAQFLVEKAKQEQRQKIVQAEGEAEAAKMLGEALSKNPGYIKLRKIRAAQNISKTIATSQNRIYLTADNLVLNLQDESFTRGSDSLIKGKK
UniProt Q9BX70: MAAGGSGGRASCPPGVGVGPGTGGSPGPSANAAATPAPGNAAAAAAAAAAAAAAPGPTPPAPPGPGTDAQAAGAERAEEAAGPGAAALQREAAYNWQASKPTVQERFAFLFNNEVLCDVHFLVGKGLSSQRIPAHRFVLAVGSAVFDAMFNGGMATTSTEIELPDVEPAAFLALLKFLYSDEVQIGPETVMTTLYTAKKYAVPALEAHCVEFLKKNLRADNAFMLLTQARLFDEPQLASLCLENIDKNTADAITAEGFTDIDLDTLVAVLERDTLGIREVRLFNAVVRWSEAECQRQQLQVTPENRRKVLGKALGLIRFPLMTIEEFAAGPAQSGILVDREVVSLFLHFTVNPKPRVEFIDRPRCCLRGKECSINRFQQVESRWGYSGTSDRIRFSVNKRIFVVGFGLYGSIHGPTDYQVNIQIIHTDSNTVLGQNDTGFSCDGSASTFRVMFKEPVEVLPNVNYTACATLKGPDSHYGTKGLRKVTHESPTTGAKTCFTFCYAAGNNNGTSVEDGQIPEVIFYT
UniProt Q99442: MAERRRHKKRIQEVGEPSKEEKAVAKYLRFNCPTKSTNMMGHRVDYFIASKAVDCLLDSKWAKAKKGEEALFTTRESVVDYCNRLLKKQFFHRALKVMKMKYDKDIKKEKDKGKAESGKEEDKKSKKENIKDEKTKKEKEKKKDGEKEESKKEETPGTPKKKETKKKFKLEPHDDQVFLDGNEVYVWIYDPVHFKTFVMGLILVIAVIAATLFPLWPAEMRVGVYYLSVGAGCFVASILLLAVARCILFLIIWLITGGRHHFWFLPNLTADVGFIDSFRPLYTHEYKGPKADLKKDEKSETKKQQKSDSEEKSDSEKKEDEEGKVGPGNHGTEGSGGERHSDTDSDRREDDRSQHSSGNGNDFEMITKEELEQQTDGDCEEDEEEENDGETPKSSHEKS
UniProt Q9BYT3: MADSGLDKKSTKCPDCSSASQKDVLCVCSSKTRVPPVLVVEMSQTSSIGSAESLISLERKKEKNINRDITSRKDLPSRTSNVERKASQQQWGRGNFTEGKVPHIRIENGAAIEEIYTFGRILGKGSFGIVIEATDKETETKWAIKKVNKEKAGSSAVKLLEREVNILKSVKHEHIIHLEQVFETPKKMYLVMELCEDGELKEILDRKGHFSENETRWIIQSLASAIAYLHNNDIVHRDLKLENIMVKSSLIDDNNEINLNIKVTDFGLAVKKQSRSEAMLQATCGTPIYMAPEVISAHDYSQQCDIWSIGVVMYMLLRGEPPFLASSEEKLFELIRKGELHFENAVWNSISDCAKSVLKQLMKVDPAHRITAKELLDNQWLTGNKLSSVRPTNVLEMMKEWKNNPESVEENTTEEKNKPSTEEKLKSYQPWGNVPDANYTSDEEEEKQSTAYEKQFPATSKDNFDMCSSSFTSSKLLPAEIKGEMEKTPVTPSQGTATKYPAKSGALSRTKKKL
UniProt Q9BZL4: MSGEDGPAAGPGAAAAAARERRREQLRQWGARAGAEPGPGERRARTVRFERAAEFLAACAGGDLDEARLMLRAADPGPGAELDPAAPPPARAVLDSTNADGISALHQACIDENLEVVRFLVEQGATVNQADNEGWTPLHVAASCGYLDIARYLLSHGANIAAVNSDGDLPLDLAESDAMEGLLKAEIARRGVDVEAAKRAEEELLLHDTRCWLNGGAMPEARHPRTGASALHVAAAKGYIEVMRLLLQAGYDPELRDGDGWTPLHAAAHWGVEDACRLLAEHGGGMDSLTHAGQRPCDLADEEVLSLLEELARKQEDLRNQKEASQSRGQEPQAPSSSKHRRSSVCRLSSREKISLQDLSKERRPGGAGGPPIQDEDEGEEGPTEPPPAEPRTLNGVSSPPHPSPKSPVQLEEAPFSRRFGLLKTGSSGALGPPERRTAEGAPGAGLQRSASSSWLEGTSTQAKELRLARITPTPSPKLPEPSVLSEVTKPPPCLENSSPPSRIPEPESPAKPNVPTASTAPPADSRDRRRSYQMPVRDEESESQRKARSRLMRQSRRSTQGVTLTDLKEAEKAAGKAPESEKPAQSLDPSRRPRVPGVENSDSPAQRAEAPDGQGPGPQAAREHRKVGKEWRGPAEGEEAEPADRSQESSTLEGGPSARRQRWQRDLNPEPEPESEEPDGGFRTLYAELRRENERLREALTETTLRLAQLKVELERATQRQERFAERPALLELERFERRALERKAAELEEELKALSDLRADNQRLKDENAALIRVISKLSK
UniProt Q99426: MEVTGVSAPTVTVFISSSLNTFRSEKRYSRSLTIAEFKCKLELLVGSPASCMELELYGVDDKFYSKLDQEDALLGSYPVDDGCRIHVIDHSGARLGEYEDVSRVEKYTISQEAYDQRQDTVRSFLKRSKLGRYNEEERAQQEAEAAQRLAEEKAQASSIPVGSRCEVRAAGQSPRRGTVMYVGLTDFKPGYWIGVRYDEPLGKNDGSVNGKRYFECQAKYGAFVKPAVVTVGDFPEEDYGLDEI
UniProt Q99856: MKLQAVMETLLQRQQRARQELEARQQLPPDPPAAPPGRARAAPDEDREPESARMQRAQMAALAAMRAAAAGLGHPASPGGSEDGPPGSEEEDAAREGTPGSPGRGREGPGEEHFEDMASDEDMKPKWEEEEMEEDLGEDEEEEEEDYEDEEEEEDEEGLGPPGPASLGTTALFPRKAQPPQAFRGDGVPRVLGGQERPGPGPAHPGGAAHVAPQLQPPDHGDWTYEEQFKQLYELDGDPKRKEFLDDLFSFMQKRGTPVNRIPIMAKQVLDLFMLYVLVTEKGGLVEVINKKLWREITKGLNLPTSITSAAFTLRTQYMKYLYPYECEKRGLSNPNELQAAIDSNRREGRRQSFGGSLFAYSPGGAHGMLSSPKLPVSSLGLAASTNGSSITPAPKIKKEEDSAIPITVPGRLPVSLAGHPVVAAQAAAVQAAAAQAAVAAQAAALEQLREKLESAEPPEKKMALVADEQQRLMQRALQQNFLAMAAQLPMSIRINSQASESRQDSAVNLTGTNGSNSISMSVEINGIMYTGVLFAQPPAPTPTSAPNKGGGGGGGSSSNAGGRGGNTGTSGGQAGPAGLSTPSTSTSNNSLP
UniProt Q9BUK6: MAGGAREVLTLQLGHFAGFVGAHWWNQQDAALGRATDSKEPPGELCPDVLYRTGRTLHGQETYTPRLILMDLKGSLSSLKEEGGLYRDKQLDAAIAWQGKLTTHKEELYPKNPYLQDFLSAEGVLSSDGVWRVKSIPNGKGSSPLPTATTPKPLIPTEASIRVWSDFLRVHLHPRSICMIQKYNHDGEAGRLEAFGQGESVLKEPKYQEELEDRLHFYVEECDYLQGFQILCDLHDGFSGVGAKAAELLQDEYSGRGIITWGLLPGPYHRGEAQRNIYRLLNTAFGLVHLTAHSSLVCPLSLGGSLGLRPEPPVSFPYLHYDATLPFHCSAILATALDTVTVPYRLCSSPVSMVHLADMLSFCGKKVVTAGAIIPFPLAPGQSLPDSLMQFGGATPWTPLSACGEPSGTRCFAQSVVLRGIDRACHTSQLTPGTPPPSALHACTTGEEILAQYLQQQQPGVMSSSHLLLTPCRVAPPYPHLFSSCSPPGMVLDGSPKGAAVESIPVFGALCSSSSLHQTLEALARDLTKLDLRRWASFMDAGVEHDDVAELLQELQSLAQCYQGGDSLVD
UniProt Q9BU02: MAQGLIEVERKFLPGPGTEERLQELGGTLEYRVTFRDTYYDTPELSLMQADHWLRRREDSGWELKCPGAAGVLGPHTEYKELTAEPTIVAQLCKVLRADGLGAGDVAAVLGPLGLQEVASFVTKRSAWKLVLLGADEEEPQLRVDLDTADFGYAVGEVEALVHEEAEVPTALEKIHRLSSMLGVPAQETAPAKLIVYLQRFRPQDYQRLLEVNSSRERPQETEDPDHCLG
UniProt Q9BQT9: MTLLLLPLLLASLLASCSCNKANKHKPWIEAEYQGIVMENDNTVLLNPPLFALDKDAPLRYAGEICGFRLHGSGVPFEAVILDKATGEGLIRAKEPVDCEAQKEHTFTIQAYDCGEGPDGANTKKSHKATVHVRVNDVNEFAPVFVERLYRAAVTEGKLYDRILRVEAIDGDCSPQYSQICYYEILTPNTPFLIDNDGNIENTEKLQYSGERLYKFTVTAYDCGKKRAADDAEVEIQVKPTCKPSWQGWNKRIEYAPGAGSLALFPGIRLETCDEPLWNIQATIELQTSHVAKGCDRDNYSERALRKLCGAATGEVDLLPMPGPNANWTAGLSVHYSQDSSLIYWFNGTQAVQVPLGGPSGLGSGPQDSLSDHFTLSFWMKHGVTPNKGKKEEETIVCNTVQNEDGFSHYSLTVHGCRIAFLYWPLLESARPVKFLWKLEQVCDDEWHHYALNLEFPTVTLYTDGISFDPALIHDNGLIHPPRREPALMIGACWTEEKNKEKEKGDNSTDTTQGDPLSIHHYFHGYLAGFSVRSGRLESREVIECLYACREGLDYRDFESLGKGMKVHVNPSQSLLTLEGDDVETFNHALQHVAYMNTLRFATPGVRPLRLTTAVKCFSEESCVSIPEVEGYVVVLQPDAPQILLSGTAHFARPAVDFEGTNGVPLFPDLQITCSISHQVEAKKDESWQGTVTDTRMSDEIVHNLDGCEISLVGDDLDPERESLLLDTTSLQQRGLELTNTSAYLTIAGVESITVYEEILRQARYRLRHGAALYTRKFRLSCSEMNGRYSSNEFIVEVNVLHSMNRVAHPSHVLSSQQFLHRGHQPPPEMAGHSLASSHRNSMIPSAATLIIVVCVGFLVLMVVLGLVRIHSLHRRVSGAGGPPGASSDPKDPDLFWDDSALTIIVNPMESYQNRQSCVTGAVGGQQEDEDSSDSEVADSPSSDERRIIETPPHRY
UniProt Q9BXL5: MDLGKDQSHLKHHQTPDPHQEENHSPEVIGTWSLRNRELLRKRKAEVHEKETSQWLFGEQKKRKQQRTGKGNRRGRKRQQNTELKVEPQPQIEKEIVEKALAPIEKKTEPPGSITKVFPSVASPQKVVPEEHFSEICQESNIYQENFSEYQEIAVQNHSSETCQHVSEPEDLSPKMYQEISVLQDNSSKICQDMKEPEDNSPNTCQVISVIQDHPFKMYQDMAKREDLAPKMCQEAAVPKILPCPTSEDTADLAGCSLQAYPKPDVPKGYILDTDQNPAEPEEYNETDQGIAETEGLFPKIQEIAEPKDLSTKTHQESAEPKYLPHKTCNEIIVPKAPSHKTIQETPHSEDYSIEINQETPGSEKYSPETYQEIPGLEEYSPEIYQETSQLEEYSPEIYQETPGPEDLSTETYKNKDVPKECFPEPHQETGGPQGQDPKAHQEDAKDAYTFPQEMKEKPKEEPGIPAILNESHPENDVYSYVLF

Target	NP40-soluble protein abundance (concentration: 1mM)	NP40-soluble protein abundance (concentration: 2mM)	NP40-soluble protein abundance (concentration: 4mM)	NP40-soluble protein abundance (concentration: 6mM)	NP40-soluble protein abundance (concentration: 8mM)	NP40-soluble protein abundance (concentration: 10mM)
WDR11 (UniProt Q9BZH6)	0.92 ± 0.097	0.949 ± 0.047	0.96 ± 0.017	0.886 ± 0.017	0.971 ± 0.039	1.03 ± 0.065
UniProt Q9BQG0 and related entries	0.958 ± 0.033	0.97 ± 0.05	0.938 ± 0.047	0.885 ± 0.027	0.904 ± 0.055	0.935 ± 0.051
PRPF18 (UniProt Q99633)	0.972 ± 0.026	0.94 ± 0.014	1 ± 0.024	1.01 ± 0.044	1.03 ± 0.014	1.01 ± 0.052
PCGF6 (UniProt Q9BYE7)	0.956 ± 0.11	0.989 ± 0.056	0.967 ± 0.12	1.02 ± 0.041	0.996 ± 0.07	0.983 ± 0.028
WDR77 (UniProt Q9BQA1)	1.07 ± 0.073	1.03 ± 0.047	1.06 ± 0.073	1.03 ± 0.04	1.05 ± 0.017	1.02 ± 0.049
PSMB7 (UniProt Q99436)	0.947 ± 0.061	0.89 ± 0.015	0.837 ± 0.042	0.923 ± 0.099	0.888 ± 0.062	0.861 ± 0.061
UniProt Q9BWG4 and related entries	0.974 ± 0.055	1.07 ± 0.17	1.06 ± 0.045	1.03 ± 0.035	1.02 ± 0.028	0.984 ± 0.059
UniProt Q9BU76 and related entries	1.05 ± 0.049	1.04 ± 0.058	1.07 ± 0.1	1.15 ± 0.046	1.15 ± 0.12	1.18 ± 0.077
YTHDF1 (UniProt Q9BYJ9)	1.03 ± 0.054	1.05 ± 0.054	1.05 ± 0.035	1.05 ± 0.037	1.06 ± 0.086	1.06 ± 0.056
RBM4 (UniProt Q9BWF3)	0.982 ± 0.083	1.02 ± 0.07	1.01 ± 0.11	1.04 ± 0.13	0.995 ± 0.082	1.04 ± 0.086
GINS4 (UniProt Q9BRT9)	0.981 ± 0.035	0.978 ± 0.019	0.976 ± 0.028	1.01 ± 0.033	0.954 ± 0.031	0.9494 ± 0.0073
SH3GL2 (UniProt Q99962)	1.03 ± 0.022	1.01 ± 0.029	1.03 ± 0.051	1.01 ± 0.052	0.97 ± 0.016	0.961 ± 0.099
UniProt Q9BRX8 and related entries	1.01 ± 0.14	0.976 ± 0.078	0.96 ± 0.071	0.907 ± 0.14	0.969 ± 0.08	0.919 ± 0.049
UniProt Q99623	0.921 ± 0.031	0.894 ± 0.03	0.859 ± 0.015	0.871 ± 0.015	0.885 ± 0.032	0.898 ± 0.046
UniProt Q9BWU1	0.918 ± 0.13	0.917 ± 0.1	0.936 ± 0.12	0.971 ± 0.12	0.946 ± 0.089	0.958 ± 0.097
BTBD2 (UniProt Q9BX70)	1.05 ± 0.053	0.952 ± 0.011	0.9572 ± 0.0019	1.02 ± 0.052	0.969 ± 0.013	0.957 ± 0.082
SEC62 (UniProt Q99442)	0.925 ± 0.063	0.939 ± 0.024	0.906 ± 0.041	0.923 ± 0.032	0.901 ± 0.037	0.924 ± 0.035
UniProt Q9BVJ6 and related entries	1.1 ± 0.065	1.12 ± 0.025	1.17 ± 0.035	1.22 ± 0.082	1.22 ± 0.038	1.262 ± 0.0085
UniProt Q9BVS4	1.09 ± 0.08	1.09 ± 0.074	1.08 ± 0.055	1.14 ± 0.12	1.1 ± 0.073	1.13 ± 0.025
UniProt Q9BSJ8 and related entries	1.02 ± 0.075	1 ± 0.059	0.988 ± 0.037	0.975 ± 0.093	0.999 ± 0.049	0.982 ± 0.052

Target	NP40-soluble protein abundance (concentration: 1mM)	NP40-soluble protein abundance (concentration: 2mM)	NP40-soluble protein abundance (concentration: 4mM)	NP40-soluble protein abundance (concentration: 6mM)	NP40-soluble protein abundance (concentration: 8mM)	NP40-soluble protein abundance (concentration: 10mM)
UniProt Q9BYT3 and related entries	0.887 ± 0.16	0.889 ± 0.11	0.905 ± 0.14	0.897 ± 0.15	0.854 ± 0.085	0.938 ± 0.15
ALKBH7 (UniProt Q9BT30)	1.04 ± 0.13	1.04 ± 0.15	1.01 ± 0.087	1.05 ± 0.25	0.933 ± 0.062	1.02 ± 0.079
UniProt Q99538 and related entries	0.924 ± 0.018	0.968 ± 0.036	0.903 ± 0.021	0.929 ± 0.03	0.902 ± 0.076	0.905 ± 0.028
PARD6B (UniProt Q9BYG5)	1.02 ± 0.097	1.04 ± 0.052	1.03 ± 0.12	1.026 ± 0.0044	0.989 ± 0.039	1.01 ± 0.038
UniProt Q9BXS5 and related entries	1.03 ± 0.12	0.97 ± 0.088	0.938 ± 0.09	0.898 ± 0.16	0.953 ± 0.056	0.969 ± 0.072
UniProt Q9BZL4 and related entries	0.964 ± 0.043	0.957 ± 0.031	0.992 ± 0.041	0.972 ± 0.033	0.942 ± 0.036	0.961 ± 0.016
SETD2 (UniProt Q9BYW2)	1.04 ± 0.065	1.08 ± 0.02	1.09 ± 0.044	1.12 ± 0.053	1.04 ± 0.033	1.06 ± 0.012
PHF20 (UniProt Q9BVI0)	1.14 ± 0.026	1.18 ± 0.049	1.31 ± 0.1	1.35 ± 0.13	1.34 ± 0.085	1.44 ± 0.16
TBCB (UniProt Q99426)	0.943 ± 0.049	0.959 ± 0.019	0.928 ± 0.017	0.959 ± 0.049	0.923 ± 0.024	0.905 ± 0.02
ARID3A (UniProt Q99856)	0.985 ± 0.044	0.974 ± 0.034	0.954 ± 0.069	0.977 ± 0.066	0.97 ± 0.014	0.97 ± 0.032
UniProt Q9BUK6 and related entries	1.01 ± 0.053	0.994 ± 0.023	0.957 ± 0.029	0.966 ± 0.049	0.982 ± 0.017	1.01 ± 0.012
THTPA (UniProt Q9BU02)	0.888 ± 0.08	0.979 ± 0.051	0.935 ± 0.093	0.936 ± 0.091	0.954 ± 0.13	0.892 ± 0.11
NCAPG (UniProt Q9BPX3)	0.99 ± 0.033	0.988 ± 0.023	0.974 ± 0.016	0.929 ± 0.012	0.974 ± 0.033	0.967 ± 0.052
UniProt Q9BZQ6-2	1.02 ± 0.06	1.01 ± 0.016	0.955 ± 0.057	0.99 ± 0.035	0.991 ± 0.022	1 ± 0.08
PIK3R4 (UniProt Q99570)	1.01 ± 0.052	0.996 ± 0.018	1 ± 0.046	0.945 ± 0.021	0.984 ± 0.016	1.01 ± 0.041
UniProt Q96TA2 and related entries	1.06 ± 0.056	1.05 ± 0.032	1.06 ± 0.037	1.06 ± 0.016	1.098 ± 0.0099	1.08 ± 0.04
UniProt Q99728 and related entries	1.06 ± 0.059	1.14 ± 0.076	1.17 ± 0.031	1.18 ± 0.026	1.16 ± 0.019	1.19 ± 0.036
UniProt Q99719 and related entries	1.05 ± 0.024	1.054 ± 0.01	1.05 ± 0.043	1.04 ± 0.025	1.04 ± 0.047	1.01 ± 0.014
OSBPL11 (UniProt Q9BXB4)	0.978 ± 0.013	0.9883 ± 0.0077	0.974 ± 0.035	0.9555 ± 0.0081	0.982 ± 0.029	0.978 ± 0.021
UniProt Q9BV73 and related entries	0.93 ± 0.044	0.928 ± 0.035	0.957 ± 0.049	0.961 ± 0.037	0.929 ± 0.022	0.944 ± 0.024

Target	NP40-soluble protein abundance (concentration: 1mM)	NP40-soluble protein abundance (concentration: 2mM)	NP40-soluble protein abundance (concentration: 4mM)	NP40-soluble protein abundance (concentration: 6mM)	NP40-soluble protein abundance (concentration: 8mM)	NP40-soluble protein abundance (concentration: 10mM)
C1orf50 (UniProt Q9BV19)	1.07 ± 0.04	1.01 ± 0.026	1.02 ± 0.011	0.989 ± 0.03	0.989 ± 0.025	0.999 ± 0.04
UniProt Q9BZF2	1.16 ± 0.09	1.14 ± 0.11	1.17 ± 0.1	1.09 ± 0.14	1.09 ± 0.095	1.09 ± 0.11
MED18 (UniProt Q9BUE0)	1.03 ± 0.1	0.997 ± 0.048	0.97 ± 0.049	1.02 ± 0.043	1.02 ± 0.026	0.97 ± 0.072
UniProt Q9BQT9 and related entries	1 ± 0.048	1.04 ± 0.091	1.11 ± 0.068	1 ± 0.079	1.02 ± 0.089	1.03 ± 0.047
UniProt Q9BSC4 and related entries	1.12 ± 0.084	1.17 ± 0.1	1.2 ± 0.097	1.29 ± 0.096	1.28 ± 0.084	1.32 ± 0.093
UniProt Q9BQ24 and related entries	1.1 ± 0.18	1.07 ± 0.069	1.05 ± 0.075	0.995 ± 0.13	1.04 ± 0.03	1.02 ± 0.026
VPS25 (UniProt Q9BRG1)	1.01 ± 0.1	1.02 ± 0.08	0.97 ± 0.093	0.964 ± 0.12	0.998 ± 0.11	0.959 ± 0.075
UniProt Q9BZE9 and related entries	0.945 ± 0.02	0.936 ± 0.053	0.933 ± 0.049	0.936 ± 0.061	0.916 ± 0.043	0.886 ± 0.031
PUS3 (UniProt Q9BZE2)	0.989 ± 0.033	1.02 ± 0.074	1.04 ± 0.055	0.991 ± 0.044	1.05 ± 0.042	1.01 ± 0.049
UniProt Q9BSF4	0.892 ± 0.06	0.948 ± 0.041	0.967 ± 0.042	0.845 ± 0.063	0.907 ± 0.057	0.994 ± 0.03
RAB11FIP5 (UniProt Q9BXF6)	1.17 ± 0.12	1.29 ± 0.12	1.26 ± 0.1	1.2 ± 0.13	1.22 ± 0.16	1.18 ± 0.16
UniProt Q96TC7	1.05 ± 0.061	1.06 ± 0.028	1.03 ± 0.043	1.06 ± 0.037	1.01 ± 0.065	1.05 ± 0.053
HEMGN (UniProt Q9BXL5)	0.908 ± 0.076	0.911 ± 0.038	0.914 ± 0.015	0.953 ± 0.062	0.863 ± 0.034	0.889 ± 0.033
UCK2 (UniProt Q9BZX2)	1.02 ± 0.061	1.02 ± 0.052	0.97 ± 0.09	1.01 ± 0.053	1.01 ± 0.085	0.98 ± 0.053
UniProt Q99714 and related entries	0.961 ± 0.036	0.979 ± 0.017	0.952 ± 0.011	0.982 ± 0.031	0.934 ± 0.035	0.9415 ± 0.0078
CABLES2 (UniProt Q9BTV7)	0.952 ± 0.19	1.02 ± 0.12	1.05 ± 0.17	0.947 ± 0.21	0.957 ± 0.22	0.995 ± 0.25
DPH2 (UniProt Q9BQC3)	0.932 ± 0.086	1 ± 0.038	0.974 ± 0.037	0.932 ± 0.048	0.941 ± 0.024	0.923 ± 0.05
UniProt Q9BTY7	0.979 ± 0.084	0.983 ± 0.075	1 ± 0.063	0.989 ± 0.12	1.01 ± 0.066	0.901 ± 0.11
UniProt Q9BY12 and related entries	1.06 ± 0.059	1.09 ± 0.033	1.19 ± 0.043	1.26 ± 0.07	1.28 ± 0.068	1.41 ± 0.032
UniProt Q9BW85	0.911 ± 0.098	0.924 ± 0.074	0.923 ± 0.096	1 ± 0.11	0.888 ± 0.027	0.908 ± 0.0094

Random excerpt: 3 entries already listed
Target	NP40-soluble protein abundance (concentration: 1mM)	NP40-soluble protein abundance (concentration: 2mM)	NP40-soluble protein abundance (concentration: 4mM)	NP40-soluble protein abundance (concentration: 6mM)	NP40-soluble protein abundance (concentration: 8mM)	NP40-soluble protein abundance (concentration: 10mM)
UniProt Q9BSC4 and related entries	1.12 ± 0.084	1.17 ± 0.1	1.2 ± 0.097	1.29 ± 0.096	1.28 ± 0.084	1.32 ± 0.093
HEMGN (UniProt Q9BXL5)	0.908 ± 0.076	0.911 ± 0.038	0.914 ± 0.015	0.953 ± 0.062	0.863 ± 0.034	0.889 ± 0.033
C1orf50 (UniProt Q9BV19)	1.07 ± 0.04	1.01 ± 0.026	1.02 ± 0.011	0.989 ± 0.03	0.989 ± 0.025	0.999 ± 0.04
